The supplement of paper PMC12823440, “Inhibitors supercharge kinase turnover through native proteolytic circuits” (Nature, 2025)
The list shows a part of the results. Hit calls seldom repeat between salt and free forms of one compound.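 Kinases, fused to nanoluciferase, were expressed in K562 cells; luminescence was measured every 4 h from 2 to 18 h as percent of control (DMSO = 100%, positive control = 0%). A time point is decreased if signal falls significantly (2 sigma). Hits were called by the authors by a rule that is not shown; the count of time points alone does not decide it.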

Chains of the proteins cited; added tags and fusions are not shown. Lines headed by an entry give the natural chain unless they say otherwise; changes in a name come on top.
UniProt P07948: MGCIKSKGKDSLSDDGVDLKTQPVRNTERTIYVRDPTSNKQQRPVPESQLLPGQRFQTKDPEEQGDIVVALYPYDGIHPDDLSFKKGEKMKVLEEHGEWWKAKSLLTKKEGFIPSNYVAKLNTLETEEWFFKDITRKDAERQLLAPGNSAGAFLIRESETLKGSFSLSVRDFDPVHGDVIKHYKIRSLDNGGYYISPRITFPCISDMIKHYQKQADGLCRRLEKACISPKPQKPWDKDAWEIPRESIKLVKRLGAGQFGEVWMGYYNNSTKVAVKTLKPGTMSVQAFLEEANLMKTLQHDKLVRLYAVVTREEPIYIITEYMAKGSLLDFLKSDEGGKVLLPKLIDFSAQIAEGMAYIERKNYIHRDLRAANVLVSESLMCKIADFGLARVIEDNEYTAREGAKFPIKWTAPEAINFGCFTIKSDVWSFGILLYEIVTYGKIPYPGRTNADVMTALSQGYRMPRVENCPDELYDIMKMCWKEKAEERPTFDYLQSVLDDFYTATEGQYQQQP
UniProt P28482, whole entry: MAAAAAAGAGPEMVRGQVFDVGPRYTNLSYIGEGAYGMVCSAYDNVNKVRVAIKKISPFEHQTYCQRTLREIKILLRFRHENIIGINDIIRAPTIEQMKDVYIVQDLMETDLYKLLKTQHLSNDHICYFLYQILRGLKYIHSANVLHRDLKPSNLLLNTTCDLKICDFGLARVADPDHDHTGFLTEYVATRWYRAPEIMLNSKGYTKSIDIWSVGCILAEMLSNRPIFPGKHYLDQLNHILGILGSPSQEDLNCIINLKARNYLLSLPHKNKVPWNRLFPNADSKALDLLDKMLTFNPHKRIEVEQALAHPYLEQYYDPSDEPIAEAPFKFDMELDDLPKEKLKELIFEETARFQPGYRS
UniProt Q9BUB5: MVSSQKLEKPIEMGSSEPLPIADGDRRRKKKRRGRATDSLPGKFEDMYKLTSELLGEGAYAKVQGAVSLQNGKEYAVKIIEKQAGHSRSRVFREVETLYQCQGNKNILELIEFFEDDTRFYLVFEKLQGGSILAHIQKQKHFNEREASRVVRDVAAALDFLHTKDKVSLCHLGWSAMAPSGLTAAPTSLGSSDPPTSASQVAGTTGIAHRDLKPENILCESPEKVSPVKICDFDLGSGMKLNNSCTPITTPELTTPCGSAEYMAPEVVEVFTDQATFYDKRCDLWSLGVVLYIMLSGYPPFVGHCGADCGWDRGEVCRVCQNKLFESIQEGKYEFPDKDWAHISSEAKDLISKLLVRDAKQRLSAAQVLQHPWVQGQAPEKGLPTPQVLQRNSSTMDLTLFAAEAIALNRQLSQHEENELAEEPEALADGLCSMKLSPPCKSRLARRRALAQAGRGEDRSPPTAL
UniProt Q16620, whole entry, looked up: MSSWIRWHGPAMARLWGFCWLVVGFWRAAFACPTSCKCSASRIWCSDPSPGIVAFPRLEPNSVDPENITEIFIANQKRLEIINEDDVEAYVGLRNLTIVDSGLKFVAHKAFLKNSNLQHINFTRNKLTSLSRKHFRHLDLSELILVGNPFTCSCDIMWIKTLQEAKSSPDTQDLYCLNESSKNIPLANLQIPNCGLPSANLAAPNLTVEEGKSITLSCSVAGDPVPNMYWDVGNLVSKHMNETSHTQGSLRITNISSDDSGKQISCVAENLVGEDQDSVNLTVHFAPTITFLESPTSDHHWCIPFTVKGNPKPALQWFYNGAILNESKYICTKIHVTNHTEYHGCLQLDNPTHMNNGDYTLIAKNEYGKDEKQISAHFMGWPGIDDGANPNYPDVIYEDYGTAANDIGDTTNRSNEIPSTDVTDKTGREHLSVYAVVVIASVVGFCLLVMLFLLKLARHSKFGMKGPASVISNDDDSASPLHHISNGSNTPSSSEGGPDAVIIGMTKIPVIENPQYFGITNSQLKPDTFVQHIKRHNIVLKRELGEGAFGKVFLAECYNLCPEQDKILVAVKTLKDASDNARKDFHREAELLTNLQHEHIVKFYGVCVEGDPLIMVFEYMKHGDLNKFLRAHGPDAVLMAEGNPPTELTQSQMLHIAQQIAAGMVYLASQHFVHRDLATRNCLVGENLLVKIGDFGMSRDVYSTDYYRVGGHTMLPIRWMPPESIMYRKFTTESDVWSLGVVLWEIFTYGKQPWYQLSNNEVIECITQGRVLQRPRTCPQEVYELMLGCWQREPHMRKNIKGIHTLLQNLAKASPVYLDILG
UniProt Q16288, whole entry, looked up: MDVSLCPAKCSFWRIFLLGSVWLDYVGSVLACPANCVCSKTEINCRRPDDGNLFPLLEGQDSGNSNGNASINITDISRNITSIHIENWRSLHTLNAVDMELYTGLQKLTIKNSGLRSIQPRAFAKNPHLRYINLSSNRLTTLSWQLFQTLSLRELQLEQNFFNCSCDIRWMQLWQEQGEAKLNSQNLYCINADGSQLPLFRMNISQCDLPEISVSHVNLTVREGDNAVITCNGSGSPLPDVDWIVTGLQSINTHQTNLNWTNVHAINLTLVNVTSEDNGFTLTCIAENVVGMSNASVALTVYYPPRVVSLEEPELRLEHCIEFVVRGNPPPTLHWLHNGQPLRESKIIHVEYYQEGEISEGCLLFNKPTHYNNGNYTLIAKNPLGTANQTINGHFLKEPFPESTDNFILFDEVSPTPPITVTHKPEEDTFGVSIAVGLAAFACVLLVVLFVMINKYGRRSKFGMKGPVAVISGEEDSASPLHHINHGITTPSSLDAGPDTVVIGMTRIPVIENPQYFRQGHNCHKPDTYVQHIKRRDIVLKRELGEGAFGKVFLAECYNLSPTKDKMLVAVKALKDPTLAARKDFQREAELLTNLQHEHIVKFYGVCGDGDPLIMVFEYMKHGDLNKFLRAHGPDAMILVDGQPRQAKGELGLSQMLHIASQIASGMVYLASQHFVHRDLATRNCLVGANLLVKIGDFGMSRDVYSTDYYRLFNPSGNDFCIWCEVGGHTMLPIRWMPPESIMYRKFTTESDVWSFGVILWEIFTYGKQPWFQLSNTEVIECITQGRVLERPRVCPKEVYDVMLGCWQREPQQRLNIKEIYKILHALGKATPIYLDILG
UniProt Q96KB5: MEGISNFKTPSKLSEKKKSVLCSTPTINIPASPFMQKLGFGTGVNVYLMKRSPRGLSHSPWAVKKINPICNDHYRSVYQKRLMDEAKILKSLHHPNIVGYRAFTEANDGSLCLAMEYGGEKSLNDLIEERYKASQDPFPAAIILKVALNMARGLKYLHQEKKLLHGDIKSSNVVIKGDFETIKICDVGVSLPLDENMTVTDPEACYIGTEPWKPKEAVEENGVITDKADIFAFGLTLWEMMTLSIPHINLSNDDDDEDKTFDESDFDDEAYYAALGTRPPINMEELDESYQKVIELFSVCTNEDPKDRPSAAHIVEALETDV
UniProt P09619, whole entry: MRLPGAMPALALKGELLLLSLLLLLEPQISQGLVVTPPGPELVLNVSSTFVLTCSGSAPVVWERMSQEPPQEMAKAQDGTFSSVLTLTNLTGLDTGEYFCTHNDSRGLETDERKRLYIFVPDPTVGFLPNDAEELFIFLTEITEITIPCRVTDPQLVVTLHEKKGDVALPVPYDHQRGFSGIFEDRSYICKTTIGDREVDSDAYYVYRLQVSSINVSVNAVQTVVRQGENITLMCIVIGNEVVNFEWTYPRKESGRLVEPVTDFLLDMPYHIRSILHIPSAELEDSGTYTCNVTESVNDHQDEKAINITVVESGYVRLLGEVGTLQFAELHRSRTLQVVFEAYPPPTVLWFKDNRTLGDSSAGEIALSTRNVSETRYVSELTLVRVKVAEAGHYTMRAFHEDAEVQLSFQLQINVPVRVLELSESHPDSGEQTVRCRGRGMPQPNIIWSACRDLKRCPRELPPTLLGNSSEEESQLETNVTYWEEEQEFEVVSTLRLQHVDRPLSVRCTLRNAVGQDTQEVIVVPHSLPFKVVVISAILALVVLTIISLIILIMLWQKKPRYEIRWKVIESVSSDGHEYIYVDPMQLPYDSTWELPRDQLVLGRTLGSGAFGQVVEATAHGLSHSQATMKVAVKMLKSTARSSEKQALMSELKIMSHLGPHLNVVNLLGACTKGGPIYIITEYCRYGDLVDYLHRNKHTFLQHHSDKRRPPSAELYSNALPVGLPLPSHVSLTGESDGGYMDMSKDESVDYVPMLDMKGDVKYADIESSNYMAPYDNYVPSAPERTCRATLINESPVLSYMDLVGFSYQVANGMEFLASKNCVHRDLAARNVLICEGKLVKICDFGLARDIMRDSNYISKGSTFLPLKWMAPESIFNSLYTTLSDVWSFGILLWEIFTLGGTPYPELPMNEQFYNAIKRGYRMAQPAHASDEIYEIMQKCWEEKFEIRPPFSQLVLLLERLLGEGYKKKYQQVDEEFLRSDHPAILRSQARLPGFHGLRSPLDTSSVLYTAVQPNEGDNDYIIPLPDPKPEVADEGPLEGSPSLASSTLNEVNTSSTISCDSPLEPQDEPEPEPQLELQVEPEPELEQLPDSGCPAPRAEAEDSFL
UniProt Q15118, whole entry, looked up: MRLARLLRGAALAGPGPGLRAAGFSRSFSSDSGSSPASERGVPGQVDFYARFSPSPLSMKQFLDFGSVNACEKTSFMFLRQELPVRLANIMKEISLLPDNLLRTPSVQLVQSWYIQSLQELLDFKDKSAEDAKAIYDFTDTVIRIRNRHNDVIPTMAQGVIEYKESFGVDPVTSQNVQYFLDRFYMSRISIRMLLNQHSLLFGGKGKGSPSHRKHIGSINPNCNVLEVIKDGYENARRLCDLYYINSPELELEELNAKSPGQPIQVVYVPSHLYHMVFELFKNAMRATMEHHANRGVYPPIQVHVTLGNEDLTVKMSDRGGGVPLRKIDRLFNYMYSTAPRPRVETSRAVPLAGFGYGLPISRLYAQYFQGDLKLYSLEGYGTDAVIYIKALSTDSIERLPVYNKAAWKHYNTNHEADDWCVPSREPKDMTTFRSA
UniProt Q9UBF8: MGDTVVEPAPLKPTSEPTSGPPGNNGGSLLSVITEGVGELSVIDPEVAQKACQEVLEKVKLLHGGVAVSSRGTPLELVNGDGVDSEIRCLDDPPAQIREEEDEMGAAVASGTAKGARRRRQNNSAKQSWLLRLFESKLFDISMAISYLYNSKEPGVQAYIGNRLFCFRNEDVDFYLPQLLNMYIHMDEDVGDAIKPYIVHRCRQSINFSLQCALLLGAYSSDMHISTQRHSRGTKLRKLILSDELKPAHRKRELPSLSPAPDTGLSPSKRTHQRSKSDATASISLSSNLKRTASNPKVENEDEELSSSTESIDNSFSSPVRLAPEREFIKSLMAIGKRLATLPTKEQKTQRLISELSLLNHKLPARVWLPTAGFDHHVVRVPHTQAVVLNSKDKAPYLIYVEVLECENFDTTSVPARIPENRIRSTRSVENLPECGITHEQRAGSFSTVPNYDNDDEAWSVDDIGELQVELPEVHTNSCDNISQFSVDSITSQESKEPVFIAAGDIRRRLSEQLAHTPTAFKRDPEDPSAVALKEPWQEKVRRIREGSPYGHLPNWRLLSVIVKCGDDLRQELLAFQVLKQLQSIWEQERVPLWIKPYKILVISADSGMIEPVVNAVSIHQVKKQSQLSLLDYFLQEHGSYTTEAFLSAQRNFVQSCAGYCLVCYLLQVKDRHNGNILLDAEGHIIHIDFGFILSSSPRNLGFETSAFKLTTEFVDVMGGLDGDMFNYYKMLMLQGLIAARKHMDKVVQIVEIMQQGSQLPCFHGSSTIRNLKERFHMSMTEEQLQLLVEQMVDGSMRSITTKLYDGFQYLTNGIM
UniProt Q13131: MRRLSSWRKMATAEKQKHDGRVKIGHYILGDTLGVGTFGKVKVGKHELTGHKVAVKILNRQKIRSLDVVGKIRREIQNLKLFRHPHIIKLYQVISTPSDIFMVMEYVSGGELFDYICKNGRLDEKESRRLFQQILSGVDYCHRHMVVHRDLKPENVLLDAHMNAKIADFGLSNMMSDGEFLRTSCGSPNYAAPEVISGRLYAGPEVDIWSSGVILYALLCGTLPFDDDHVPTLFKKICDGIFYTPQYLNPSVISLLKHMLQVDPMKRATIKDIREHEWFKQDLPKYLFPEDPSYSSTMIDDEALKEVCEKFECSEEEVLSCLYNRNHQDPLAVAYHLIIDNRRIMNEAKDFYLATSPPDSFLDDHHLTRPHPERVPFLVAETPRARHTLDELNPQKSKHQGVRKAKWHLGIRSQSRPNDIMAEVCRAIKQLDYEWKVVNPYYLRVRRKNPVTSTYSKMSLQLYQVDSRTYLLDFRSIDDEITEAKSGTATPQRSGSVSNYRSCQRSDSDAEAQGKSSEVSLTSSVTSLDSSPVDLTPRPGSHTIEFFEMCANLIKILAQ

Columns and labels:
Assay in all cases: number of time points (of 5) at which kinase-Nluc abundance scored as decreased, DMSO-normalised (count); higher = more persistent destabilization
Conditions in all cases: K562; 2-18 h
[1] = biological target: LMTK2 (UniProt Q8IWU2)
[2] = biological target: LYN (UniProt P07948)
[3] = biological target: MAP2K1 (UniProt Q02750)
[4] = biological target: MAP2K2 (UniProt P36507)
[5] = biological target: MAP4K2 (UniProt Q12851)
[6] = biological target: MAPK1 (UniProt P28482)
[7] = biological target: MAPK4 (UniProt P31152)
[8] = biological target: MAPKAPK2 (UniProt P49137)
[9] = biological target: MKNK1 (UniProt Q9BUB5)
[10] = biological target: NTRK2 (UniProt Q16620)
[11] = biological target: NTRK3 (UniProt Q16288)
[12] = biological target: PAK4 (UniProt O96013)
[13] = biological target: PBK (UniProt Q96KB5)
[14] = biological target: PDGFRB (UniProt P09619)
[15] = biological target: PDK1 (UniProt Q15118)
[16] = biological target: PDPK1 (UniProt O15530)
[17] = biological target: PIK4CA (UniProt P42356)
[18] = biological target: PIK4CB (UniProt Q9UBF8)
[19] = biological target: PLK1 (UniProt P53350)
[20] = biological target: PRKAA1 (UniProt Q13131)

Measured: number of time points

O=C(CO)N1CCC(c2n[nH]c(-c3ccc(Cl)cc3)c2-c2ccncn2)CC1 (10 µM)
0: all assays above

C=CC(=O)Nc1cccc(-n2c(=O)cc(C)c3cnc(Nc4ccc(OCCN(C)C)cc4OC)nc32)c1 (10 µM)
0: all assays above

COc1nc(-c2ccnc(NC(=O)C3CC3)c2)sc1C(N)=O [GSK-3β inhibitor 2] (10 µM)
3: [1]
0: all other assays above

CCc1c(C)sc(NC(=S)NC(=O)c2ccc(Cl)cc2)c1C(N)=O (10 µM)
0: all assays above

Cc1cccc(-c2[nH]ncc2-c2ccc3ncccc3n2)n1 (10 µM)
0: all assays above

COc1cc(N2CCC(N(C)C)CC2)ccc1Nc1ncc(Cl)c(Nc2ccccc2P(C)(C)=O)n1 (2.5 µM)
0: all assays above

COc1ccc2c(Oc3ccc(NC(=O)c4c(C)n(CC(C)(C)O)n(-c5ccccc5)c4=O)cc3F)ccnc2c1 (2.5 µM)
1: [9] | [18]
3: [16]
0: all other assays above

O=C1NC(=O)C(c2cn(-c3ccccc3)nc2-c2ccc(F)cc2)N1 (stereo not given) (10 µM)
1: [19]
0: all other assays above

C[C@@H]1CCc2ncc(F)cc2[C@H]2CCCN2c2ccn3ncc(c3n2)C(=O)N1 [Selitrectinib] (10 µM)
0: all assays above

CC1(N)CCN(c2cnc3c(-c4cccc(Cl)c4Cl)[nH]nc3n2)CC1 (2.5 µM)
0: all assays above

COc1ccc2c(c1)c(C1=C(c3c[nH]c4ccccc34)C(=O)NC1=O)cn2CCCN(C)C (10 µM)
0: all assays above

O=C(Nc1ccc(Cl)cc1)C1CCCN(C(=O)c2cccc(-c3ccco3)c2)C1 (stereo not given) (2.5 µM)
0: all assays above

Cc1cc(Nc2cc(CN3CCOCC3)c3nc(C)c(Cc4ccc(Cl)cc4F)n3n2)n[nH]1 [Gandotinib] (2.5 µM)
0: all assays above

CC(C)(C)Cn1c(N)nc2ccc(-c3[nH]c(C(C)(C)C)nc3-c3ccc(F)cc3)nc21 [Ralimetinib dimesylate] (2.5 µM)
0: all assays above

CC(C)n1cnc2c(Nc3cccc(Cl)c3)nc(NCCO)nc21 (10 µM)
0: all assays above

O=[N+]([O-])c1ccc(Sc2cccc[n+]2[O-])c2nonc12 (2.5 µM)
0: all assays above

COc1cc(C(C)=O)cc(OC)c1O [Acetosyringone] (10 µM)
0: all assays above

Copied from the results shown (two entries):
CC(C)n1cnc2c(Nc3cccc(Cl)c3)nc(NCCO)nc21 (10 µM)
0: all assays above

O=[N+]([O-])c1ccc(Sc2cccc[n+]2[O-])c2nonc12 (2.5 µM)
0: all assays above

Going on with the list:

CN(C)c1ncnc2nc[nH]c12 [6-(Dimethylamino)purine] (10 µM)
0: all assays above

CCC(C)(C)C(=O)N(O)Cc1ccccc1 (10 µM)
0: all assays above

C=CC(=O)N1CCC[C@@H](n2nc(C(=O)Nc3ccc(CC(=O)N(C)C)c(C)c3C)c3c(N)ncnc32)C1 (10 µM)
0: all assays above

CN1CCN(CCCNc2ncc(Cl)c(-c3cc4c(C(=O)NC5CC5)cccc4s3)n2)CC1 (10 µM)
0: all assays above

CCc1cccc(CC)c1NC(=O)c1nn(C)c2c1CCc1cnc(Nc3ccc(C(=O)NC4CCN(C)CC4)cc3OC(F)(F)F)nc1-2 (2 µM)
0: all assays above

Cc1cc2cc(Oc3ccnc(Nc4cccc(CS(=O)(=O)NCCN(C)C)c4)n3)ccc2[nH]1 [Sulfatinib] (10 µM)
4: [16]
0: all other assays above

Cc1ccc(-c2ncn(-c3ccc(Nc4nccc(-c5cccc(N6CCOCC6)c5)n4)cc3)n2)cn1 (10 µM)
0: all assays above

CC(C)(C)c1cc(C(c2cc3c(cc2O)OCO3)N2CCOCC2)cc(C(C)(C)C)c1O (stereo not given) (2.5 µM)
0: all assays above
